# Laboratory results as given in the supplement of paper PMC8728848.
# Some of the results follow.
# Legend:
# Test in all cases: glycan array binding signal (z-score within array); higher = stronger binding
# Details in all cases: glycan notation: IUPAC condensed, linker removed
# Fuc(a1-2)Gal = molecular target: Fuc(a1-2)Gal
# How it was run: (§1)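 Negative Z-scores can be read as non-binding. The Z-score is calculated within each array and then averaged across arrays of one protein sequence at different concentrations or buffers and across linkers. Arrays, 3228 in all, were curated from the Consortium for Functional Glycomics database and kept only where the protein sequence was available.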
# Fuc(a1-2)Gal(b1-3)GalNAc = molecular target: Fuc(a1-2)Gal(b1-3)GalNAc
# How it was run: as §1
# [1] = molecular target: Fuc(a1-2)Gal(b1-3)GalNAc(a1-3)[Fuc(a1-2)]Gal(b1-4)Glc
# How it was run: as §1
# [2] = molecular target: Fuc(a1-2)Gal(b1-3)GalNAc(a1-3)[Fuc(a1-2)]Gal(b1-4)GlcNAc
# How it was run: as §1
# [3] = molecular target: Fuc(a1-2)Gal(b1-3)GalNAc(b1-3)Gal
# How it was run: as §1
# [4] = molecular target: Fuc(a1-2)Gal(b1-3)GalNAc(b1-3)Gal(a1-4)Gal(b1-4)Glc
# How it was run: as §1
# [5] = molecular target: Fuc(a1-2)Gal(b1-3)GalNAc(b1-4)[Neu5Ac(a2-3)]Gal(b1-4)Glc
# How it was run: as §1
# Fuc(a1-2)Gal(b1-3)GlcNAc = molecular target: Fuc(a1-2)Gal(b1-3)GlcNAc
# How it was run: as §1
# [6] = molecular target: Fuc(a1-2)Gal(b1-3)GlcNAc(b1-2)Man(a1-3)[Fuc(a1-2)Gal(b1-3)GlcNAc(b1-2)Man(a1-6)]Man(b1-4)GlcNAc(b1-4)GlcNAc
# How it was run: as §1
# [7] = molecular target: Fuc(a1-2)Gal(b1-3)GlcNAc(b1-2)Man(a1-3)[Fuc(a1-2)Gal(b1-3)GlcNAc(b1-2)Man(a1-6)]Man(b1-4)GlcNAc(b1-4)[Fuc(a1-6)]GlcNAc
# How it was run: as §1
# [8] = molecular target: Fuc(a1-2)Gal(b1-3)GlcNAc(b1-3)Gal(b1-4)Glc
# How it was run: as §1
# [9] = molecular target: Fuc(a1-2)Gal(b1-3)GlcNAc(b1-3)GalNAc
# How it was run: as §1
# [10] = molecular target: Fuc(a1-2)Gal(b1-3)GlcNAc(b1-3)[Fuc(a1-2)Gal(b1-3)GlcNAc(b1-6)]GalNAc
# How it was run: as §1
# [11] = molecular target: Fuc(a1-2)Gal(b1-3)GlcNAc(b1-3)[Gal(b1-4)GlcNAc(b1-6)]Gal(b1-4)Glc
# How it was run: as §1
# [12] = molecular target: Fuc(a1-2)Gal(b1-3)GlcNAc(b1-3)[Neu5Ac(a2-6)Gal(b1-4)GlcNAc(b1-6)]Gal(b1-4)Glc
# How it was run: as §1
# [13] = molecular target: Fuc(a1-2)Gal(b1-3)GlcNAc6S
# How it was run: as §1
# [14] = molecular target: Fuc(a1-2)Gal(b1-3)[Fuc(a1-4)]GlcNAc
# How it was run: as §1
# [15] = molecular target: Fuc(a1-2)Gal(b1-3)[Fuc(a1-4)]GlcNAc(b1-2)Man(a1-3)[Fuc(a1-2)Gal(b1-3)[Fuc(a1-4)]GlcNAc(b1-2)Man(a1-3)]Man(b1-4)GlcNAc(b1-4)GlcNAc
# How it was run: as §1
# [16] = molecular target: Fuc(a1-2)Gal(b1-3)[Fuc(a1-4)]GlcNAc(b1-2)Man(a1-3)[Fuc(a1-2)Gal(b1-3)[Fuc(a1-4)]GlcNAc(b1-2)Man(a1-6)]Man(b1-4)GlcNAc(b1-4)[Fuc(a1-6)]GlcNAc(b1-4)[Fuc(a1-6)]GlcNAc
# How it was run: as §1
# [17] = molecular target: Fuc(a1-2)Gal(b1-3)[Fuc(a1-4)]GlcNAc(b1-3)[Fuc(a1-3)[Gal(b1-4)]GlcNAc(b1-6)]Gal(b1-4)Glc
# How it was run: as §1
# [18] = molecular target: Fuc(a1-2)Gal(b1-3)[Fuc(a1-4)]GlcNAc(b1-3)[Gal(b1-4)GlcNAc(b1-6)]Gal(b1-4)Glc
# How it was run: as §1
# [19] = molecular target: Fuc(a1-2)Gal(b1-4)Fuc(a1-3)]GlcNAc(b1-2)Man(a1-3)[Fuc(a1-2)Gal(b1-4)[Fuc(a1-3)]GlcNAc(b1-2)Man(a1-6)]Man(b1-4)GlcNAc(b1-4)GlcNAc
# How it was run: as §1
# Fuc(a1-2)Gal(b1-4)Glc = molecular target: Fuc(a1-2)Gal(b1-4)Glc
# How it was run: as §1
# Fuc(a1-2)Gal(b1-4)Glc6S = molecular target: Fuc(a1-2)Gal(b1-4)Glc6S
# How it was run: as §1
# Fuc(a1-2)Gal(b1-4)GlcNAc = molecular target: Fuc(a1-2)Gal(b1-4)GlcNAc
# How it was run: as §1
# [20] = molecular target: Fuc(a1-2)Gal(b1-4)GlcNAc(b1-2)Man
# How it was run: as §1
# [21] = molecular target: Fuc(a1-2)Gal(b1-4)GlcNAc(b1-2)Man(a1-3)[Fuc(a1-2)Gal(b1-4)GlcNAc(b1-2)Man(a1-6)]Man(b1-4)GlcNAc(b1-4)GlcNAc
# How it was run: as §1
# [22] = molecular target: Fuc(a1-2)Gal(b1-4)GlcNAc(b1-2)Man(a1-3)[Fuc(a1-2)Gal(b1-4)GlcNAc(b1-2)Man(a1-6)]Man(b1-4)GlcNAc(b1-4)[Fuc(a1-6)]GlcNAc
# How it was run: as §1
# [23] = molecular target: Fuc(a1-2)Gal(b1-4)GlcNAc(b1-2)[Fuc(a1-2)Gal(b1-4)GlcNAc(b1-4)]Man(a1-3)[Fuc(a1-2)Gal(b1-4)GlcNAc(b1-2)Man(a1-6)]Man(b1-4)GlcNAc(b1-4)GlcNAc
# How it was run: as §1
# [24] = molecular target: Fuc(a1-2)Gal(b1-4)GlcNAc(b1-3)Gal(b1-4)GlcNAc
# How it was run: as §1
# [25] = molecular target: Fuc(a1-2)Gal(b1-4)GlcNAc(b1-3)Gal(b1-4)GlcNAc(b1-2)Man(a1-3)[Fuc(a1-2)Gal(b1-4)GlcNAc(b1-3)Gal(b1-4)GlcNAc(b1-2)Man(a1-6)]Man(b1-4)GlcNAc(b1-4)GlcNAc
# How it was run: as §1
# [26] = molecular target: Fuc(a1-2)Gal(b1-4)GlcNAc(b1-3)Gal(b1-4)GlcNAc(b1-3)Gal(b1-4)GlcNAc
# How it was run: as §1
# [27] = molecular target: Fuc(a1-2)Gal(b1-4)GlcNAc(b1-3)GalNAc
# How it was run: as §1
# [28] = molecular target: Fuc(a1-2)Gal(b1-4)GlcNAc(b1-3)[Fuc(a1-2)Gal(b1-4)GlcNAc(b1-6)]GalNAc
# How it was run: as §1
# [29] = molecular target: Fuc(a1-2)Gal(b1-4)GlcNAc(b1-3)[Fuc(a1-3)[Gal(b1-4)]GlcNAc(b1-6)]Gal(b1-4)Glc
# How it was run: as §1
# [30] = molecular target: Fuc(a1-2)Gal(b1-4)GlcNAc(b1-6)GalNAc
# How it was run: as §1
# [31] = molecular target: Fuc(a1-2)Gal(b1-4)GlcNAc6S
# How it was run: as §1
binder,measurement,setting,value
SabA (Helicobacter pylori) (protein) MGSSHHHHHHSSGLVPRGSHMENLYFQGEDNGFFVSAGYQIGEAVQMVKNTGELKNLNEKYEQLSQYLNQVASLKQSIQNANNIELVNSSLNYLKSFTNNNYNSTTQSPIFNAVQAVITSVLGFWSLYAGNYFTFFVGKKVGDSGQPASVQGNPPFKTIIENCSGIENCAMDQTTYDKMKKLAEDLQAAQTNSATKGNNLCALSGCAATDSTSNPPNSTVSNALNLAQQLMDLIANTKTAMMWKNIVISGVSNTSGAITSTNYPTQYAVFNNIKAMIPILQQAVTLSQSNHTLSASLQAQATGSQTNPKFAKDIYTFAQNQKQVISYAQDIFNLFNSIPAEQYKYLEKAYLKIPNAGSTPTNPYRQVVNLNQEVQTIKNNVSYYGNRVDAALSVARDVYNLKSNQAEIVTAYNDAKTLSEEISKLPHNQVNTKDIVTLPYDKNAPAAGQSNYQINPEQQSNLNQALAAMSNNPFKKVGMISSQNNNGA,glycan array binding signal (z-score),Fuc(a1-2)Gal,-0.009
same,glycan array binding signal (z-score),Fuc(a1-2)Gal(b1-3)GalNAc,-0.483
same,glycan array binding signal (z-score),[1],-0.405
same,glycan array binding signal (z-score),[2],0.026
same,glycan array binding signal (z-score),[3],-0.181
same,glycan array binding signal (z-score),[4],0.314
same,glycan array binding signal (z-score),[5],0.208
same,glycan array binding signal (z-score),Fuc(a1-2)Gal(b1-3)GlcNAc,-0.513
same,glycan array binding signal (z-score),[6],1.36
same,glycan array binding signal (z-score),[7],1.55
same,glycan array binding signal (z-score),[8],0.232
same,glycan array binding signal (z-score),[9],-1.08
same,glycan array binding signal (z-score),[10],-0.363
same,glycan array binding signal (z-score),[11],0.126
same,glycan array binding signal (z-score),[12],0.04
same,glycan array binding signal (z-score),[13],-0.047
same,glycan array binding signal (z-score),[14],-0.148
same,glycan array binding signal (z-score),[15],3.91
same,glycan array binding signal (z-score),[16],0.785
same,glycan array binding signal (z-score),[17],-0.216
same,glycan array binding signal (z-score),[18],0.025
same,glycan array binding signal (z-score),[19],0.327
same,glycan array binding signal (z-score),Fuc(a1-2)Gal(b1-4)Glc,0.228
same,glycan array binding signal (z-score),Fuc(a1-2)Gal(b1-4)Glc6S,0.21
same,glycan array binding signal (z-score),Fuc(a1-2)Gal(b1-4)GlcNAc,-0.378
same,glycan array binding signal (z-score),[20],0.056
same,glycan array binding signal (z-score),[21],0.326
same,glycan array binding signal (z-score),[22],2.49
same,glycan array binding signal (z-score),[23],0.41
same,glycan array binding signal (z-score),[24],-0.981
same,glycan array binding signal (z-score),[25],0.579
same,glycan array binding signal (z-score),[26],-0.249
same,glycan array binding signal (z-score),[27],0.238
same,glycan array binding signal (z-score),[28],0.517
same,glycan array binding signal (z-score),[29],-0.656
same,glycan array binding signal (z-score),[30],-0.198
same,glycan array binding signal (z-score),[31],-0.069

# Reformatted bar-delimited: entries from further up.
binder | measurement | setting | value
SabA (Helicobacter pylori) (protein) MGSSHHHHHHSSGLVPRGSHMENLYFQGEDNGFFVSAGYQIGEAVQMVKNTGELKNLNEKYEQLSQYLNQVASLKQSIQNANNIELVNSSLNYLKSFTNNNYNSTTQSPIFNAVQAVITSVLGFWSLYAGNYFTFFVGKKVGDSGQPASVQGNPPFKTIIENCSGIENCAMDQTTYDKMKKLAEDLQAAQTNSATKGNNLCALSGCAATDSTSNPPNSTVSNALNLAQQLMDLIANTKTAMMWKNIVISGVSNTSGAITSTNYPTQYAVFNNIKAMIPILQQAVTLSQSNHTLSASLQAQATGSQTNPKFAKDIYTFAQNQKQVISYAQDIFNLFNSIPAEQYKYLEKAYLKIPNAGSTPTNPYRQVVNLNQEVQTIKNNVSYYGNRVDAALSVARDVYNLKSNQAEIVTAYNDAKTLSEEISKLPHNQVNTKDIVTLPYDKNAPAAGQSNYQINPEQQSNLNQALAAMSNNPFKKVGMISSQNNNGA | glycan array binding signal (z-score) | Fuc(a1-2)Gal(b1-3)GlcNAc | -0.513
same | glycan array binding signal (z-score) | [6] | 1.36
